Source: the supplement of paper PMC8728848
The list shows a part of the results.

Legend:
Assay in all cases: glycan array binding signal (z-score within array); higher = stronger binding
Conditions in all cases: glycan notation: IUPAC condensed, linker removed
[1] = biological target: Gal(b1-4)GlcNAc(b1-6)GalNAc
Outline: (§1)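 Columns mapping to the same glycan were averaged after glycan names were converted to IUPAC-condensed notation. The data come from 3228 arrays in the Consortium for Functional Glycomics database, limited to those with an available protein sequence. Binding is reported as a within-array Z-score averaged across arrays of one protein sequence and across linkers.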

[2] = biological target: Gal(b1-4)GlcNAc(b1-6)[Gal(b1-3)]GalNAc
Outline: as §1

[3] = biological target: Gal(b1-4)GlcNAc(b1-6)[Gal(b1-4)GlcNAc(b1-3)]GalNAc
Outline: as §1

Gal(b1-4)GlcNAc6P = biological target: Gal(b1-4)GlcNAc6P
Outline: as §1

Gal(b1-6)Gal = biological target: Gal(b1-6)Gal
Outline: as §1

Gal3S(b1-3)GalNAc = biological target: Gal3S(b1-3)GalNAc
Outline: as §1

Gal3S(b1-3)GlcNAc = biological target: Gal3S(b1-3)GlcNAc
Outline: as §1

[4] = biological target: Gal3S(b1-3)[Fuc(a1-4)]GlcNAc
Outline: as §1

Gal3S(b1-4)Glc = biological target: Gal3S(b1-4)Glc
Outline: as §1

Gal3S(b1-4)Glc6S = biological target: Gal3S(b1-4)Glc6S
Outline: as §1

Gal3S(b1-4)GlcNAc = biological target: Gal3S(b1-4)GlcNAc
Outline: as §1

[5] = biological target: Gal3S(b1-4)[Fuc(a1-3)]Glc6S
Outline: as §1

[6] = biological target: Gal3S(b1-4)[Fuc(a1-3)]GlcNAc
Outline: as §1

[7] = biological target: Gal3S(b1-4)[Fuc(a1-3)]GlcNAc6S
Outline: as §1

Gal3S4S(b1-4)GlcNAc = biological target: Gal3S4S(b1-4)GlcNAc
Outline: as §1

Gal3S6S(b1-4)GlcNAc = biological target: Gal3S6S(b1-4)GlcNAc
Outline: as §1

Gal3S6S(b1-4)GlcNAc6S = biological target: Gal3S6S(b1-4)GlcNAc6S
Outline: as §1

Gal4S(b1-4)GlcNAc = biological target: Gal4S(b1-4)GlcNAc
Outline: as §1

Gal4S6S(b1-4)GlcNAc = biological target: Gal4S6S(b1-4)GlcNAc
Outline: as §1

Gal6P(b1-4)GlcNAc = biological target: Gal6P(b1-4)GlcNAc
Outline: as §1

Gal6S(b1-3)GlcNAc = biological target: Gal6S(b1-3)GlcNAc
Outline: as §1

Gal6S(b1-3)GlcNAc6S = biological target: Gal6S(b1-3)GlcNAc6S
Outline: as §1

Gal6S(b1-4)Glc = biological target: Gal6S(b1-4)Glc
Outline: as §1

B1: Mermaid2 (Stilbonema majum) (protein)
chain: MGSSHHHHHHSSGLVPRGSHMAASGWLRSPQGTVVKLYRRSLSWSKADEFCKDVDGRLVVDRTADMHLFLIKNVLKEKKSRVWVGLRRTAPHSRTWIWSDGTRQNEDDLNTNLWLRDEPNDAAGEEECALFMYSPWEKAWGLNDYLCRGGCRSYQFICEKGIR
[1]
  glycan array binding signal (z-score): -0.317
[2]
  glycan array binding signal (z-score): 0.098
[3]
  glycan array binding signal (z-score): -0.243
Gal(b1-4)GlcNAc6P
  glycan array binding signal (z-score): -0.662
Gal(b1-6)Gal
  glycan array binding signal (z-score): 0.995
Gal3S(b1-3)GalNAc
  glycan array binding signal (z-score): 1.21
Gal3S(b1-3)GlcNAc
  glycan array binding signal (z-score): 0.749
[4]
  glycan array binding signal (z-score): -0.527
Gal3S(b1-4)Glc
  glycan array binding signal (z-score): 1.66
Gal3S(b1-4)Glc6S
  glycan array binding signal (z-score): 0.612
Gal3S(b1-4)GlcNAc
  glycan array binding signal (z-score): 0.517
[5]
  glycan array binding signal (z-score): -0.639
[6]
  glycan array binding signal (z-score): -0.482
[7]
  glycan array binding signal (z-score): 0.154
Gal3S4S(b1-4)GlcNAc
  glycan array binding signal (z-score): -0.249
Gal3S6S(b1-4)GlcNAc
  glycan array binding signal (z-score): 0.553
Gal3S6S(b1-4)GlcNAc6S
  glycan array binding signal (z-score): -0.077
Gal4S(b1-4)GlcNAc
  glycan array binding signal (z-score): -0.303
Gal4S6S(b1-4)GlcNAc
  glycan array binding signal (z-score): 0.216
Gal6P(b1-4)GlcNAc
  glycan array binding signal (z-score): -0.237
Gal6S(b1-3)GlcNAc
  glycan array binding signal (z-score): -0.649
Gal6S(b1-3)GlcNAc6S
  glycan array binding signal (z-score): -0.172
Gal6S(b1-4)Glc
  glycan array binding signal (z-score): -0.719
